Laboratory results from article PMC7819943, “Rice protein-binding microarrays: a tool to detect cis-acting elements near promoter regions in rice”.
The list shows a part of the results.

Chains of the proteins cited; added tags and fusions are not shown.
UniProt Q0JBA9, entry or part of it: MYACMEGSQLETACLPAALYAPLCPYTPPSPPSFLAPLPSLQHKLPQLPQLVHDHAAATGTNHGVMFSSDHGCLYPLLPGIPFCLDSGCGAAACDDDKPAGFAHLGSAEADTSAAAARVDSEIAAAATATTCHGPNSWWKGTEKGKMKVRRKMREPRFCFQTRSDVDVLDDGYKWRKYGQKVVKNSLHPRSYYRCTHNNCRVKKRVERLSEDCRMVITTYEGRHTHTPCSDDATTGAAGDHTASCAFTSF

target: OsWRKY34 (Oryza sativa, UniProt Q0JBA9 1-250); assay: protein-binding microarray (RPBM); PBS, 2% BSA, 51.3 ng/ul salmon testes DNA, 50 uM zinc acetate, 200 nM TF, 25 C, 1 h; high values mean tight binding; details: protein: recombinant; tags: N-terminal polyhistidine and DsRed monomer fusion (pET32a); label: CyDye5-dUTP incorporated in the synthesized complementary strand; 3' TTTTT single-stranded linker to array surface; dsDNA, one strand shown
Method in brief: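 Transcription factors were each fused at the N-terminus to a polyhistidine tag plus DsRed and expressed in E. coli BL21-CodonPlus before Ni–NTA purification. Binding to a double-stranded custom Agilent array was carried out with 200 nM protein at 25 °C for 1 h in PBS, 2% BSA, salmon testes DNA and 50 µM zinc acetate. The binding signal is per-feature fluorescence intensity, in arbitrary units, on an Axon 4000B scanner.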

Question: With “GTTCTCCGCCAACGCTTCATGAAGGCGTACTTTGACTTTACGGAGTCACCTAGTGCAG” as the sequence, how does the binding signal read?
Answer: 10500 fluorescence intensity (a.u.)

Question: Which binding signal does the source give for “GGGTCTCACGATTCCCCGCTATTGAGGATCTTCCCTCGACCGGAGTCACCTAGTGCAG” here?
Answer: 8900 fluorescence intensity (a.u.)

Question: How did the binding signal turn out when “GGTTGGTTTCTTTGTTTTTCTCTTATATTTACACTATATTCGGAGTCACCTAGTGCAG” was run?
Answer: 23800 fluorescence intensity (a.u.)

Question: For “TCTCTCTCTCACCTGTTATTAGTCTTGGCTAGCTTTCTTCCGGAGTCACCTAGTGCAG”, which binding signal is on record?
Answer: 11300 fluorescence intensity (a.u.)

Question: For “GATCACACACAGCCAGCTGCATTTTTGAATTGAACGGGTACGGAGTCACCTAGTGCAG”, which binding signal is on record?
Answer: 8700 fluorescence intensity (a.u.)

Question: With “GTCTTCGCAAACGCCGTCCATTTTCCGTCGCCGGACCCCTCGGAGTCACCTAGTGCAG” as the sequence, how does the binding signal read?
Answer: 9310 fluorescence intensity (a.u.)

Question: Which binding signal does the source give for “CGAACCATCAACCAACCGTCCACGCAAACCAACTCGCCACCGGAGTCACCTAGTGCAG” here?
Answer: 10000 fluorescence intensity (a.u.)

Question: How did the binding signal turn out when “TAGGGATTGCTATAAACGGAGCGGAGAATTTTGTTTGTTTCGGAGTCACCTAGTGCAG” was run?
Answer: 8360 fluorescence intensity (a.u.)

Question: How did the binding signal turn out when “TCTCTCTCTCTCTCTCTCTCTCTCTCTCTCTCTCTCTCCGCGGAGTCACCTAGTGCAG” was run?
Answer: 11000 fluorescence intensity (a.u.)

Question: With “GCTGAGAGAGAGAGATGGTTGAATTTGCTATAGTTAGGCACGGAGTCACCTAGTGCAG” as the sequence, how does the binding signal read?
Answer: 8450 fluorescence intensity (a.u.)

Question: Which binding signal does the source give for “AACCACGCTTTCCTATGGCCCACCTGTCATGTAATCAGTTCGGAGTCACCTAGTGCAG” here?
Answer: 11500 fluorescence intensity (a.u.)

Question: How did the binding signal turn out when “GCTCGGTTGCATACCAAATGTCTTCTCCTACAGCATTCTTCGGAGTCACCTAGTGCAG” was run?
Answer: 9920 fluorescence intensity (a.u.)

Question: With “TGTAAGTTTCCAGTGTTCACATTTAACCGTTCGTCTTATTCGGAGTCACCTAGTGCAG” as the sequence, how does the binding signal read?
Answer: 8640 fluorescence intensity (a.u.)

Question: For “GAATGCAAACAACGCTTATCCATTATGTTTCGCTTTGTATCGGAGTCACCTAGTGCAG”, which binding signal is on record?
Answer: 8480 fluorescence intensity (a.u.)

Question: “CTGGTCAGTTGGTCTTGTGTTTTGGGCTTTTTCGGCCCGTCGGAGTCACCTAGTGCAG” was tested. Which binding signal did it give?
Answer: 12200 fluorescence intensity (a.u.)

Question: Which binding signal does the source give for “CAAATGTTGGACACGGAAACCAGGGTTTGTCTTTTTTTTTCGGAGTCACCTAGTGCAG” here?
Answer: 8610 fluorescence intensity (a.u.)

Question: How did the binding signal turn out when “GCAGCTACCACTCCAGCTTATCCATCTCATCATCCATTCCCGGAGTCACCTAGTGCAG” was run?
Answer: 10200 fluorescence intensity (a.u.)

Question: Which binding signal does the source give for “TCGTGCAAAACCGGGGAGGGGTTGTTTGAGGAAAGAGGAACGGAGTCACCTAGTGCAG” here?
Answer: 8460 fluorescence intensity (a.u.)

Question: “TTGAATAATTGTGTGTTCCTTATCTTGGTCTGGTCACTTTCGGAGTCACCTAGTGCAG” was tested. Which binding signal did it give?
Answer: 10300 fluorescence intensity (a.u.)

Question: “GTGTAGATTGATTGGTTCTTGGTGGTGGTGGTGGTGGATCCGGAGTCACCTAGTGCAG” was tested. Which binding signal did it give?
Answer: 22200 fluorescence intensity (a.u.)

Question: “GGAGGAGCGGTGCGTGGGGTCAGCGGCCGGCGGGAGGGCACGGAGTCACCTAGTGCAG” was tested. Which binding signal did it give?
Answer: 9670 fluorescence intensity (a.u.)

Question: “CATCAGTGTCAGTAATTTGCCCTATGTTTTTAGATCAAGACGGAGTCACCTAGTGCAG” was tested. Which binding signal did it give?
Answer: 9290 fluorescence intensity (a.u.)

Question: With “CGACGACCAGACCACGCATTTCTTTTCTTTTTTTCTTTTTCGGAGTCACCTAGTGCAG” as the sequence, how does the binding signal read?
Answer: 15000 fluorescence intensity (a.u.)

Question: Which binding signal does the source give for “CTTATCCATCCGCACCCACCTCCTCCATCCTGCTATAAACCGGAGTCACCTAGTGCAG” here?
Answer: 8400 fluorescence intensity (a.u.)

Question: Which binding signal does the source give for “GCTTCGGGCATCGTCTCTCCCAGCGCCGGCCGGACCGATGCGGAGTCACCTAGTGCAG” here?
Answer: 8660 fluorescence intensity (a.u.)

Question: “AAATTTCTAGCCTCCACAGCGAACGTGATTATGTATTTTTCGGAGTCACCTAGTGCAG” was tested. Which binding signal did it give?
Answer: 8780 fluorescence intensity (a.u.)

Question: Which binding signal does the source give for “CGTAGAAGGGATTGGGTGAAATTACAGGGGCATGTAGGTACGGAGTCACCTAGTGCAG” here?
Answer: 9960 fluorescence intensity (a.u.)

Question: With “TGACAAGCAGACCCCGTATTTTTTCTTCTCACTTCACTTACGGAGTCACCTAGTGCAG” as the sequence, how does the binding signal read?
Answer: 11000 fluorescence intensity (a.u.)

Question: How did the binding signal turn out when “AGCCTATTTCATTTGATATATCATGGTGCATGATCTAATTCGGAGTCACCTAGTGCAG” was run?
Answer: 11100 fluorescence intensity (a.u.)

Question: Which binding signal does the source give for “TCATATCTGTAGCCCGCTGCTTTTCTGTCTCTTTATCTCTCGGAGTCACCTAGTGCAG” here?
Answer: 12800 fluorescence intensity (a.u.)

Question: Which binding signal does the source give for “GTGTTGGTTTCAAAATATGGACTAGATTGCCGTTTAGTTTCGGAGTCACCTAGTGCAG” here?
Answer: 11200 fluorescence intensity (a.u.)

Question: With “ATTTTGTCTTGAGTGGTTTGGGGTTTTGTGCTATTGGGCCCGGAGTCACCTAGTGCAG” as the sequence, how does the binding signal read?
Answer: 8830 fluorescence intensity (a.u.)

Question: How did the binding signal turn out when “CCGACGAACCATACCTCCCTCAGCTCCCACCGCGCACCATCGGAGTCACCTAGTGCAG” was run?
Answer: 8140 fluorescence intensity (a.u.)

Question: With “CCTTACTATCATGCTCTTGTTTTTTTGCATATTTATTCAACGGAGTCACCTAGTGCAG” as the sequence, how does the binding signal read?
Answer: 14300 fluorescence intensity (a.u.)

Question: With “CTGTTTCAAGTTTTCTTACTAGCAATGCTCATATTTACTTCGGAGTCACCTAGTGCAG” as the sequence, how does the binding signal read?
Answer: 10500 fluorescence intensity (a.u.)

Question: For “CAGGGATACTATCTTTTTGGCCATGGGTTCCACAGTTACACGGAGTCACCTAGTGCAG”, which binding signal is on record?
Answer: 8150 fluorescence intensity (a.u.)

Question: Which binding signal does the source give for “GCCACTACCGCTCGCCCACACATTGTCATTATGTCAACCCCGGAGTCACCTAGTGCAG” here?
Answer: 11000 fluorescence intensity (a.u.)

Question: For “GGGAGAGGGAACAGGGGAGGGTGGCGAGCTCCTGACCATCCGGAGTCACCTAGTGCAG”, which binding signal is on record?
Answer: 11100 fluorescence intensity (a.u.)

Question: With “CCACCCCACATGACCGCCCATTTCCGTATTCTCCGGCAGGCGGAGTCACCTAGTGCAG” as the sequence, how does the binding signal read?
Answer: 8220 fluorescence intensity (a.u.)

Question: With “ACACTCACTCTCTCTCTCTCTCTCTCTCTCTCTCGACATGCGGAGTCACCTAGTGCAG” as the sequence, how does the binding signal read?
Answer: 10100 fluorescence intensity (a.u.)

Question: Which binding signal does the source give for “ACCATGCAAGATCATATACTTACAGCTTTTCTGGTTGTTTCGGAGTCACCTAGTGCAG” here?
Answer: 10300 fluorescence intensity (a.u.)

Question: “TTATTGGGAGCGCGCGGGGTCGGGGATACGGGCCGTATCACGGAGTCACCTAGTGCAG” was tested. Which binding signal did it give?
Answer: 8790 fluorescence intensity (a.u.)
